From paper PMC9262616
These are yes or no findings as the source states them, for the method shown. In cells and extracts the contact can be indirect. Some results given as binding are weak or reduced against the parent protein; the word gives no strength.

Sequences of proteins named here, by UniProt entry; tags and fusion partners are left off. A change or cut given only in a name is not applied to a line headed by its entry. A line that says so, or that is headed by a name, gives the form on record, which may keep a tag or linker. Residues count along the entry.
UniProt Q9UPY3: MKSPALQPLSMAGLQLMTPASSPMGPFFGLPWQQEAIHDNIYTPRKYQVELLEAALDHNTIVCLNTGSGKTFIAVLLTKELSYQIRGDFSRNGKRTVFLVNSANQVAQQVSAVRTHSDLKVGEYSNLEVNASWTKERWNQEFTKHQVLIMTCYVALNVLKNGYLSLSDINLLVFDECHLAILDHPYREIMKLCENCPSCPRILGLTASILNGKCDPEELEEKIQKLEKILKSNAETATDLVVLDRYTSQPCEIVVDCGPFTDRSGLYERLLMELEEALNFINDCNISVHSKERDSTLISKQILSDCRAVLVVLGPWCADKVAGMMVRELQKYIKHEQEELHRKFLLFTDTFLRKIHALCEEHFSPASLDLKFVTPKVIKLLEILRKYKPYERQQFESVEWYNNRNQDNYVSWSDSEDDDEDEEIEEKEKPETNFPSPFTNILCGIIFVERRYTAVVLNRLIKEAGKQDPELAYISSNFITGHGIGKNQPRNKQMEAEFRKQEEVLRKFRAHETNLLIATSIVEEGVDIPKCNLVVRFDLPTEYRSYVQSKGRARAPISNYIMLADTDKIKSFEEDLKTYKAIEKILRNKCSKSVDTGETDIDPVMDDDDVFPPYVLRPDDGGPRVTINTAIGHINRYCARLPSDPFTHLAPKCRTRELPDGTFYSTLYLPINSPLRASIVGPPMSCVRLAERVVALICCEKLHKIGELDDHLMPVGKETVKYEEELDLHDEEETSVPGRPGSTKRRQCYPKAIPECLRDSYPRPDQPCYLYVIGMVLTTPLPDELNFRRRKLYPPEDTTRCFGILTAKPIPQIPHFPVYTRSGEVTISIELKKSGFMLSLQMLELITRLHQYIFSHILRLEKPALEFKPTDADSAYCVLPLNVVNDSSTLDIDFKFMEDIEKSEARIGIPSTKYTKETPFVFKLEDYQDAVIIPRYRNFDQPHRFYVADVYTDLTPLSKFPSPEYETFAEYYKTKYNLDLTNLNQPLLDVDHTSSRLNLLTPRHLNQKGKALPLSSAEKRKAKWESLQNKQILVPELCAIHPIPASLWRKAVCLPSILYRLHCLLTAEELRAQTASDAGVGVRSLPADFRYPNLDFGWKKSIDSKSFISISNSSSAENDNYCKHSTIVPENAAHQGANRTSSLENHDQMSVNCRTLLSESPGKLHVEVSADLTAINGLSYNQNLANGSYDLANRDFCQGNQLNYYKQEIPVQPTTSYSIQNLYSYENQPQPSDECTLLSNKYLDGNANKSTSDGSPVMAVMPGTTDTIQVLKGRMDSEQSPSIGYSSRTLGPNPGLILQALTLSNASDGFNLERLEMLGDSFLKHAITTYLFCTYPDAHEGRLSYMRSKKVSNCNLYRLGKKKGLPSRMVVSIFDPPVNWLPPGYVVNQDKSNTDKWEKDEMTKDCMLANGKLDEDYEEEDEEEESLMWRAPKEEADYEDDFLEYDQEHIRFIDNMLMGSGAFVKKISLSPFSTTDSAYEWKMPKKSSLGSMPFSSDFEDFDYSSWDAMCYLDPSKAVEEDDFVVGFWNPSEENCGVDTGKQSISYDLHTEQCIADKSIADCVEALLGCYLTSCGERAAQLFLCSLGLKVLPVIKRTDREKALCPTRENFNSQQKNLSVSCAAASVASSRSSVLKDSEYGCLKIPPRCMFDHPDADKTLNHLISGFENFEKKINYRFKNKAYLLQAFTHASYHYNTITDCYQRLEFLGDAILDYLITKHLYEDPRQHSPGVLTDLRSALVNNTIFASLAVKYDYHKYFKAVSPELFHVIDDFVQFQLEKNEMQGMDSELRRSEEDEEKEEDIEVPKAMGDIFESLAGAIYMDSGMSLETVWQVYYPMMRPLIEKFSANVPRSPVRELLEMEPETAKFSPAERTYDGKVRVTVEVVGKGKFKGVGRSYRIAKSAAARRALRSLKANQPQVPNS
UniProt O95433: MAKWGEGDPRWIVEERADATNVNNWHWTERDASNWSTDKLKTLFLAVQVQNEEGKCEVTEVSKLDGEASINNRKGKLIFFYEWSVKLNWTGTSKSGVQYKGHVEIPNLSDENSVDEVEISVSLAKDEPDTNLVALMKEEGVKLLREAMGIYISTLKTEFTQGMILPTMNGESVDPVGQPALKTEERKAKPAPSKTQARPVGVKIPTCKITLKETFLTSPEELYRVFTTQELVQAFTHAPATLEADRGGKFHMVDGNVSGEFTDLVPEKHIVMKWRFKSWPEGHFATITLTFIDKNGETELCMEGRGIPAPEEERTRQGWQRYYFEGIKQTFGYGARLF
Flag-tagged Aha1-Δ20 (first 20 amino acids deleted): residues 21-338 of O95433

Columns and labels:
[1] = target: Dicer1, endogenous (human (endogenous in HEK293T)) (UniProt Q9UPY3); experiment: co-IP; endogenous proteins of HEK293T lysate, precleared; reciprocal immunoprecipitation with antibodies to Dicer1 and Aha1 (4 μg), 4°C overnight, Protein A/G agarose; western blot
[2] = target: Flag-Dicer1 (pCAGGS-Flag-hsDicer1) (human) (UniProt Q9UPY3); experiment: co-IP; maturation-dependent interaction assay: HEK293T cells transfected with Flag-Dicer1 for 24 h, treated with CHX to block de novo protein synthesis, harvested at time points; western blot for Flag, HSP90 and Aha1
[3] = target: Flag-tagged Aha1-E67K (human) (UniProt O95433); experiment: co-IP; HEK293T cells transfected with Flag-tagged Aha1 plasmids (wild type, E67K, Δ20) for 24 h; anti-Flag M2 beads, 4°C overnight; western blot
[4] = target: Flag-tagged Aha1-Δ20 (first 20 amino acids deleted) (human) (UniProt O95433); experiment: as above
[5] = target: Flag-tagged wild-type Aha1 (human) (UniProt O95433); experiment: as above
[6] = target: Aha1, endogenous (human (endogenous in HEK293T)) (UniProt O95433); experiment: co-IP; endogenous proteins of HEK293T lysate, precleared; reciprocal immunoprecipitation with antibodies to Dicer1 and Aha1 (4 μg), 4°C overnight, Protein A/G agarose; western blot

Measured: binding

Aha1, endogenous (from UniProt O95433 1-338)
binds: [1] | [2]

Dicer1, endogenous (from UniProt Q9UPY3 1-1922)
binds: [3] | [4] | [5] | [6]
